Test results: paper PMC8486843, “SPOP mutation induces replication over-firing by impairing Geminin ubiquitination and triggers replication catastrophe upon ATR inhibition” (Nature Communications, 2021)

Chains of the proteins cited; added tags and fusions are not shown. Lines headed by an entry give the natural chain unless they say otherwise; changes in a name come on top.
UniProt O43791: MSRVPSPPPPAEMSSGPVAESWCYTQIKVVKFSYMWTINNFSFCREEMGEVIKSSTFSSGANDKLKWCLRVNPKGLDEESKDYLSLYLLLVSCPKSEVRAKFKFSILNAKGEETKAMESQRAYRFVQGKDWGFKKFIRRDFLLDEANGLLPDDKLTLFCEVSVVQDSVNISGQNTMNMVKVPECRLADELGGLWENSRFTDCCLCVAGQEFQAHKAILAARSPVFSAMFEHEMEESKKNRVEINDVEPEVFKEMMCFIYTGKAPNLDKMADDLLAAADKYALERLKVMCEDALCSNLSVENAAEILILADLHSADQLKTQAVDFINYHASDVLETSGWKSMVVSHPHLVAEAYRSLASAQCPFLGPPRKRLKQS

Target: T1, Flag-Geminin WT (human) (UniProt O75496)
T1 sequence: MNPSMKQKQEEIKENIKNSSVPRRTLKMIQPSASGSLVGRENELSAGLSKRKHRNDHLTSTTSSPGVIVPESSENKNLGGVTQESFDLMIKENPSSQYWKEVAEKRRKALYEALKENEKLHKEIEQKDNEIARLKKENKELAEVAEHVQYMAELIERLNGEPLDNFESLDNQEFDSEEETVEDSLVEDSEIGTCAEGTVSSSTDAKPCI
Assay: co-IP; 293T cells co-transfected with Flag-Geminin (WT or mutant) and SPOP (WT or mutant) (Fig. 1g, 3b, 3d, 3g)

Substance | binding
SPOP ΔBTB mutant (from UniProt O43791) | binds
SPOP ΔMATH mutant (from UniProt O43791) | no binding

Results are given in words; binding and its absence hold for the method and conditions named. In cells and extracts the contact can be indirect. Binding can be weak; no strength is given. Where a sequence is shown, tags or fusion partners need not be part of it.
